We go through 42 sequences from paper PMC7819943, “Rice protein-binding microarrays: a tool to detect cis-acting elements near promoter regions in rice”.

This is one part of the list.

In the test the target is T1, OsSMF1 (Oryza sativa, UniProt Q6ZLB0 1-436).
T1 sequence: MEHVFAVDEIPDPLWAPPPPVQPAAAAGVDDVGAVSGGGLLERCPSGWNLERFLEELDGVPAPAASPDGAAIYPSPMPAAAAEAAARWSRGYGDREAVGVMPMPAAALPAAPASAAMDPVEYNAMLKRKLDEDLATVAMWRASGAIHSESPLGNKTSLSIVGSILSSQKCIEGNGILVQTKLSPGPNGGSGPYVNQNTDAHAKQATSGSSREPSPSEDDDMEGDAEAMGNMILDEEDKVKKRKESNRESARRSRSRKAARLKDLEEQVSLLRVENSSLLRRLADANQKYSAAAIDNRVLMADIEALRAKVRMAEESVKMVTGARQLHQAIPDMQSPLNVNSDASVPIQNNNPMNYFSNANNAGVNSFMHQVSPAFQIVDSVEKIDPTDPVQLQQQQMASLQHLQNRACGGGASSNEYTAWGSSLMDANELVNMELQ
Briefly: protein-binding microarray (RPBM); PBS, 2% BSA, 51.3 ng/ul salmon testes DNA, 50 uM zinc acetate, 200 nM TF, 25 C, 1 h; high values mean tight binding. The conditions noted are these: protein: recombinant; tags: N-terminal polyhistidine and DsRed monomer fusion (pET32a); chain copies: 2; label: CyDye5-dUTP incorporated in the synthesized complementary strand; 3' TTTTT single-stranded linker to array surface; dsDNA, one strand shown. In short, it runs like this:
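Transcription factors were made in E. coli BL21-CodonPlus as N-terminal fusions to a polyhistidine tag and DsRed, then purified on Ni–NTA. After primer extension with Cy5-dUTP and blocking with 2% BSA, a custom Agilent array was exposed for 1 h at 25 °C to 200 nM protein in PBS, 2% BSA, salmon testes DNA and 50 µM zinc acetate. Washed arrays were scanned on an Axon 4000B, and the binding signal is per-feature fluorescence intensity in arbitrary units.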
On to “AGCAGTTTTGAAGTGTGACGTAAGCATGGAAAACAAGAACCGGAGTCACCTAGTGCAG”, for which the binding signal is 5670 fluorescence intensity (a.u.). Under “GGAGGAAGAGAGACCTTGCTGACGTGGCACCTGACATGTGCGGAGTCACCTAGTGCAG” stands 7440 fluorescence intensity (a.u.); under “TAGTTTTATTGCAATCTGACGTATCCCCAAGCAGGTATCACGGAGTCACCTAGTGCAG”, 7770 fluorescence intensity (a.u.). Consider “TCTCGCCATTTCCGCGGCGCCACCGCACTCCGCCACTCTCCGGAGTCACCTAGTGCAG”, for which the binding signal was 3180 fluorescence intensity (a.u.). As for “CTGGTGCTGACGTGGAAGGGGCACGCCGCCGTGTTCACCGCGGAGTCACCTAGTGCAG”, the binding signal is 16300 fluorescence intensity (a.u.). Turning to “AACACACAAGCAGGCGACGTGGCAGCCAGAGAGGGGCTAACGGAGTCACCTAGTGCAG”, the binding signal was 6280 fluorescence intensity (a.u.). On to “GTACAAGACTTGGTGCTCACGTATTATGTTTGGTACTATTCGGAGTCACCTAGTGCAG”, for which the binding signal was 3300 fluorescence intensity (a.u.). Next, “GCTGACATGTGGGCCCACCCTTCAGAGAGAACACACTGGCCGGAGTCACCTAGTGCAG”: 24500 fluorescence intensity (a.u.); “TGCACACCCAGGTTGAAGACGACAATGACGAGCTCGGGCGCGGAGTCACCTAGTGCAG”: 3330 fluorescence intensity (a.u.). Take “TTGGGCCGGGCCCATTACGGCTACATAGGCCTCGACGACCCGGAGTCACCTAGTGCAG”: the binding signal is 5640 fluorescence intensity (a.u.).

Regarding “TTGTCTTGCGTTGGCGTCAGCACCTCCTTCACCGCGGCTTCGGAGTCACCTAGTGCAG”, the binding signal is 5660 fluorescence intensity (a.u.). Consider “AAATTTTAGTGGAGTTAAATTTTAACTCATGGTGACGTGGCGGAGTCACCTAGTGCAG”, for which the binding signal was 37100 fluorescence intensity (a.u.). In the case of “CCATTTCCCGTCGTCTCCACCTCACCACCTCTCTAAACAACGGAGTCACCTAGTGCAG”, the binding signal is 4650 fluorescence intensity (a.u.). On to “GCGAAGGAGCTTATCCGCTAAGACGTGGCTGCATCTCTCCCGGAGTCACCTAGTGCAG”, for which the binding signal is 4310 fluorescence intensity (a.u.).

In the case of “TTAACTTTTATGTTTGTAGAGTGATATATCACATATTAATCGGAGTCACCTAGTGCAG”, the binding signal was 20900 fluorescence intensity (a.u.). “TGTTTTACCTTGAGTTATCTGATGTTGACTGGTGTGTACTCGGAGTCACCTAGTGCAG”: the binding signal is 3560 fluorescence intensity (a.u.).

“TCCCGCCCGCCCGTGACGCGTACAGCCGTACACCCATTCCCGGAGTCACCTAGTGCAG”: the binding signal was 8830 fluorescence intensity (a.u.). With “CTAACTCTTTGGGCTGGGCCACGTCAAGATCTGAGCAATTCGGAGTCACCTAGTGCAG”, the binding signal was 6710 fluorescence intensity (a.u.).

In the case of “CGAGATATAATTGCCATGTCATTGCCACGTCAATGTCACGCGGAGTCACCTAGTGCAG”, the binding signal is 49600 fluorescence intensity (a.u.). Consider “CGCGCGCATGGGCAACATACCTCGGAGCCGATCGCGTCCGCGGAGTCACCTAGTGCAG”, for which the binding signal is 5880 fluorescence intensity (a.u.). Take “ATGTATGTATGTATGTGTGTGTGTGTATATATATATATATCGGAGTCACCTAGTGCAG”: the binding signal was 4560 fluorescence intensity (a.u.). For the sequence “GGGTTCATACTGAATTTACATTTCCTGTTGCACACGCATGCGGAGTCACCTAGTGCAG”, the binding signal is 3190 fluorescence intensity (a.u.). As to “GAATCCGGCAGGGCTTCGCCCCTTCTTATCTTCTCCTCCCCGGAGTCACCTAGTGCAG”, the binding signal was 5250 fluorescence intensity (a.u.).

As to “TGGGCCCCACATACCAGCCACGGCGCCGCCACGTCGGATCCGGAGTCACCTAGTGCAG”, the binding signal is 15800 fluorescence intensity (a.u.). Next, “ATTGAACATTTCACGTCAGACATGGACATAGGATCCTGTTCGGAGTCACCTAGTGCAG”: 4990 fluorescence intensity (a.u.); “GGAAGATATGAGGTGAAGAAACTGATGCCCCAGGTGGCAACGGAGTCACCTAGTGCAG”: 3520 fluorescence intensity (a.u.).

As for “ACCCTTTTCCTCGTATGGTAGTGACTCGTCTCGTTTGCTTCGGAGTCACCTAGTGCAG”, the binding signal was 4470 fluorescence intensity (a.u.). For the sequence “ACCTCGCTCACTCGCTCGCTCGATCACCGCGACCTCACTCCGGAGTCACCTAGTGCAG”, the binding signal was 16800 fluorescence intensity (a.u.). For “AGTCAGGTACATGGCACCAGGTAAGCTAGTATCATCTGTTCGGAGTCACCTAGTGCAG”, the binding signal was 3510 fluorescence intensity (a.u.).

For “CTCCAAATTAGTATCCAAACATCCGATGTGACATGGACTTCGGAGTCACCTAGTGCAG”, the binding signal was 4370 fluorescence intensity (a.u.). Under “AAGAGGAGAGCAAAACTCCAAATGGTCACACGTCTCTCGGCGGAGTCACCTAGTGCAG” stands 4210 fluorescence intensity (a.u.); under “GGGGCGGCGAAACTTACAGCGAGCCGGTGAGCACGGCGAACGGAGTCACCTAGTGCAG”, 24400 fluorescence intensity (a.u.); under “ATGATGCTGAAAAGGAAGAGGGTTTTGATATGGATAGTGACGGAGTCACCTAGTGCAG”, 9440 fluorescence intensity (a.u.). On to “TCCTCACTGGAATGATGTCATGACATGAATAGATATATCTCGGAGTCACCTAGTGCAG”, for which the binding signal is 5910 fluorescence intensity (a.u.). Turning to “TAGTAACCTAGGAGCGGATGACGTATCCTCTCTCCGTCTCCGGAGTCACCTAGTGCAG”, the binding signal is 9270 fluorescence intensity (a.u.).

Consider “AAAATTACACACAGCATGTACATTACGTCACACCTCATTCCGGAGTCACCTAGTGCAG”, for which the binding signal was 8330 fluorescence intensity (a.u.). Take “AAGCTTCCGGATCTCCTCCTCGATCCTGCCGCGCATCTCCCGGAGTCACCTAGTGCAG”: the binding signal is 4300 fluorescence intensity (a.u.).

As for “TAAATTTCACAAAACTACGTGTATTTTGACCAAATTATCACGGAGTCACCTAGTGCAG”, the binding signal is 3140 fluorescence intensity (a.u.). As for “CCGGTGTCATGCGGGACCCACGTGTAAGTGATAGAGTGGGCGGAGTCACCTAGTGCAG”, the binding signal was 6820 fluorescence intensity (a.u.). Next, “CCTCCGTGTGAGTGTGACGCACCTTACATCCCAGCACAGACGGAGTCACCTAGTGCAG”: 6090 fluorescence intensity (a.u.); “ACCGGCCCAGAACAGTTGGGCAGCCCACGAAGTCACCAACCGGAGTCACCTAGTGCAG”: 3250 fluorescence intensity (a.u.); “CTCCACCACGAGTCACGAGTCACGACCACCTCTCCGGTCTCGGAGTCACCTAGTGCAG”: 4170 fluorescence intensity (a.u.).
